A word on the AC50: it is the midpoint of the concentration-response curve, whichever way the signal moves. High values mean activity only at high concentration, low ones activity at low concentration.

Each structure is given as a SMILES string. This is one part of the list. Further columns of the screen follow, without active or inactive calls. Compounds called inactive in the main read-out are mostly missing here. Words in brackets tell the shape of the fitted curve; partial curves, single points and poor fits give uncertain potencies.

Experimental findings from PubChem BioAssay AID2685 (National Center for Advancing Translational Sciences (NCATS), 2010) are described below.

This test in a line: qHTS Assay for Lipid Storage Modulators in Drosophila S3 Cells.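 As to cell number change: cells counted by Cell Tracker Red CMTPX staining in the red channel.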 The following applies: BODIPY lipid droplet fluorescence, 18-24 h; for cell number change: measured here: cell count max response, cells fed with added oleic acid. The gist of the method:
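Drosophila S3 cells loaded with oleic acid (400 uM, as added) and compounds at several concentrations; lipid droplets imaged by 488-nm laser-scanning cytometry, 500–530 nm intensity and object ratio to cell channel. Percent activity normalized to 20 uM Triacsin C.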

Setting [1] is: measured here: cell number channel AC50, cells fed with added oleic acid.
[2] abbreviates: measured here: lipid fluorescence (Fed channel) AC50, cells fed with added oleic acid.

Regarding `CC(C)(C)c1ccc(S(=O)(=O)NCCOCC(F)(F)C(F)F)cc1`, the cell number change was -50.5%. Further, the AC50 under setting [1] was 20.6 µM [falling, single point].
Take `Cn1nc(C(=O)NNc2c(F)c(F)cc(F)c2F)c2ccccc2c1=O`: the cell number change is -6.35%. Also, the AC50 under setting [1] is 2.91 µM [rising, single point].
For `O=C(COC(=O)c1ccc([N+](=O)[O-])s1)NCc1ccc(F)cc1`, the cell number change is -22.1%. Moreover, the AC50 under setting [2] was 7.31 µM [falling, partial curve, poor fit].
Take `Cc1cccn2c(=O)c3cc(C(=O)NCc4ccco4)c(=N)n(C(C)C)c3nc12`: the cell number change was -19.4%. The AC50 under setting [2] was 1.64 µM [rising, full curve].
Take `CNc1cc(CSc2ccc(Cl)cc2)nc(C)n1`: the cell number change is -49.4%. Further, under setting [1], the AC50 was 1.46 µM [falling, single point]. The AC50 under setting [2] is 29.1 µM [falling, partial curve, poor fit].
In the case of `CCOC(=O)C1CCN(C(=O)CN(Cc2ccc(Cl)cc2)S(C)(=O)=O)CC1`, the cell number change is -77.3%. Moreover, the AC50 under setting [1] is 29.1 µM [falling, single point]. Also, the AC50 under setting [2] was 0.259 µM [falling, full curve, poor fit].
Turning to `Cc1cc(C)c2oc(C(=O)Nc3ccc(S(=O)(=O)N4CCCC(C)C4)cc3)cc(=O)c2c1` (stereo not drawn), the AC50 under setting [1] was 5.8 µM [rising, single point].
As to `Cc1ccn2cc(-c3ccc(NC(=O)c4ccco4)cc3)nc2c1`, the cell number change is -2.84%. The AC50 under setting [2] is 29.1 µM [falling, single point].
Turning to `COCc1nc2ccccc2n1CCc1ccccc1`, the cell number change was -27%. Moreover, the AC50 under setting [2] was 2.06 µM [falling, partial curve, poor fit].
For `CC1CCC2(CC1)NC(=O)N(CC(=O)Nc1cccc(C#N)c1)C2=O` (stereo not drawn), the cell number change is -11.9%. For the same compound, the AC50 under setting [2] is 2.06 µM [falling, full curve, poor fit].
With `O=C(Nc1ccc(N2CCN(C(=O)c3cccs3)CC2)cc1)c1ccco1`, the cell number change was found to be 10.5%.
On the same count and under the same terms, in the case of `COCCN(Cc1cc2cc3c(cc2nc1Cl)OCO3)C(=O)Nc1ccccc1OC` it was -2.33%.
Consider `CC(C)OCCCn1c(NN)nc2ccccc2c1=O`, for which the cell number change was 35.9%. Under setting [1], the AC50 was 0.291 µM [rising, partial curve].
Consider `O=C(O)c1cc(NCc2cccs2)ccc1N1CCOCC1`, for which the cell number change amounted to 3.96%.
Take `CC(=O)c1ccc(N2Cc3ccccc3C2)cc1`: the cell number change worked out at 1.4%. Further, the AC50 under setting [2] was 5.8 µM [rising, partial curve].
As to `Cc1sc2nc(C3CC3)nc(N3CCN(C(=O)c4ccc(Cl)cc4)CC3)c2c1C`, the cell number change is 30.6%. The AC50 under setting [1] was 0.58 µM [rising, full curve, poor fit]. The AC50 under setting [2] was 16.4 µM [rising, partial curve].
`Cc1noc(C)c1C(=O)N1CCN(Cc2ccc3c(c2)OCO3)CC1`: the cell number change is -1.59%. Besides, under setting [2], the AC50 is 6.51 µM [rising, single point].
Turning to `CCN1CCC2(CC1)N=C(c1ccc(F)cc1)C(=S)N2C(=O)c1ccc(C)cc1`, the cell number change was -72.6%. Under setting [1], the AC50 was 23.1 µM [falling, partial curve]. For the same compound, under setting [2], the AC50 was 23.1 µM [falling, partial curve].
Turning to `COc1cc(NC(=O)NNC(=O)c2cc3occc3n2C)cc(OC)c1OC`, the cell number change was -19.2%. Besides, the AC50 under setting [2] was 29.1 µM [rising, single point].
Consider `COc1ccc(CNC(N)=O)cc1OC`, for which the cell number change turned out to be 31.8%. Moreover, under setting [1], the AC50 is 0.206 µM [rising, full curve, poor fit].
In the case of `Nc1ncnc(Nc2cccc(Cl)c2Cl)n1`, the cell number change was 29.3%. For the same compound, the AC50 under setting [1] was 0.0517 µM [rising, full curve, poor fit]. The concentration at half-maximal activity (AC50) under setting [2] was 23.1 µM [rising, partial curve].
`COc1ccccc1C1=NOC(C(=O)N2CCN(C(=O)c3ccco3)CC2)C1` (stereo not drawn): the cell number change was found to be 11%. Also, under setting [2], the AC50 was 11.6 µM [rising, partial curve].
For the compound `Cc1ccc(S(=O)(=O)N2CCOCC2)cc1NC(=O)CSc1nnnn1C`, the cell number change was -29.2%. For the same compound, the AC50 under setting [2] was 0.0058 µM [falling, full curve, poor fit].
As for `CC(C)NC(=S)N/N=C1\CCCc2ccccc21`, the cell number change is 118%. The AC50 under setting [1] was 23.1 µM [rising, partial curve, poor fit]. The AC50 under setting [2] is 2.31 µM [rising, partial curve].
With `Cc1ccc(C(C)C)c(OCCCCN2CCNCC2)c1`, the cell number change is 25.8%. Further, the AC50 under setting [2] was 29.1 µM [rising, single point].
As for `CCCC(=O)Nc1ccc2oc(-c3cccnc3)nc2c1`, the cell number change was determined as 55.5%. Further, under setting [1], the concentration at half-maximal activity (AC50) was 29.1 µM [rising, single point]. Also, the AC50 under setting [2] is 4.61 µM [rising, single point].
As for `CCOC(=O)c1c(NC(=O)COC(=O)Cc2n[nH]c(=O)c3ccccc23)sc(C(=O)N(C)C)c1C`, the half-maximal activity concentration (AC50) under setting [2] was 5.8 µM [rising, single point].
For the compound `NNC(=O)c1cc2c(N3CCC(Cc4ccccc4)CC3)ncnc2s1`, the cell number change is 9.26%.
On to `CCOC(=O)Cc1nnc(Nc2cc(C)ccc2C)c2ccccc12`, for which the cell number change is -36.4%. Also, under setting [1], the AC50 was 2.59 µM [falling, full curve]. Further, the AC50 under setting [2] is 4.61 µM [falling, partial curve].
On to `O=C1C=C(c2cc(F)ccc2F)C[C@@H](c2ccc(F)cc2)C1`, for which the cell number change is -19%. The AC50 under setting [1] is 0.366 µM [falling, partial curve, poor fit]. Also, under setting [2], the half-maximal activity concentration (AC50) is 0.231 µM [rising, full curve].
Turning to `O=C1C2C3C=CC(C2C(=O)N1CCCO)C1C2C(=O)N(CCCO)C(=O)C2C31` (stereo not drawn), the AC50 under setting [1] is 0.731 µM [falling, single point] and the half-maximal activity concentration (AC50) under setting [2] is 8.2 µM [rising, partial curve, poor fit].
For the compound `C=CCOC(=O)Nc1c(C(=O)OC)[nH]c2ccccc12`, the cell number change came to 38.2%. The AC50 under setting [1] was 9.2 µM [rising, partial curve, poor fit].
`C=CCN=c1scc(-c2ccc(F)cc2)n1/N=C/c1ccccn1`: the cell number change is -27.6%. The AC50 under setting [2] was 20.6 µM [falling, single point].
Take `CCN(CC)CC(=O)Nc1ccc(/C(C)=N/NC2=NCCN2)cc1`: the cell number change was 36.2%.
Consider `Cc1ccc(Oc2nc(CN3CCOCC3)nc3sc4c(c23)CCC(C)C4)cc1C` (stereo not drawn), for which the cell number change amounted to 24.3%. Further, the AC50 under setting [2] is 3.66 µM [rising, single point].
Take `CC(C)c1ccc(NC(=S)NNC(=O)c2cccnc2)cc1`: the cell number change was -52%. Moreover, under setting [1], the AC50 is 32.6 µM [falling, single point]. In addition, the AC50 under setting [2] was 29.1 µM [falling, partial curve, poor fit].
Turning to `Cc1c(NC(=O)Nc2cc(Cl)ccc2Cl)c(=O)n(-c2ccccc2)n1C`, the cell number change was determined as 19.7%.
In the case of `COc1ccc(Cc2nnc3sc(SCC(=O)Nc4ccccc4)nn3c2=O)cc1OC`, the cell number change was -30.2%. The AC50 under setting [1] is 0.731 µM [falling, full curve].
As for `COc1ccccc1OCCSc1nc2ccc([N+](=O)[O-])cc2s1`, the cell number change came out at 39.4%. Further, the AC50 under setting [1] is 8.2 µM [rising, partial curve]. Besides, under setting [2], the AC50 is 18.4 µM [rising, single point].
`Cc1cccc(-c2nnc(SC(C)C(=O)N3CCOCC3)o2)c1` (stereo not drawn): the cell number change came out at 17.8%. In addition, under setting [2], the AC50 is 2.06 µM [falling, partial curve].
Consider `O=C(N=Nc1c(O)[nH]c2ccc(Br)cc12)c1cc(-c2cccs2)nc2ccccc12`, for which the cell number change was -30.3%. Moreover, the half-maximal activity concentration (AC50) under setting [1] is 23.1 µM [falling, single point]. The AC50 under setting [2] was 0.58 µM [falling, single point].
Take `Cc1ccc(C(=O)NNC(=S)NC(=O)c2ccc(Cl)cc2Cl)cc1`: the cell number change is -0.465%.
With `Cc1c(CCOC(=O)c2cc([N+](=O)[O-])cc([N+](=O)[O-])c2)sc[n+]1CC(=O)c1ccc(Br)cc1`, under setting [1], the AC50 is 0.0651 µM [falling, full curve, poor fit].
For the compound `Cc1cccc(C)c1Nc1nc2ccccc2o1`, under setting [2], the AC50 is 0.231 µM [rising, full curve].
For `O=C(O)C1CSCN1S(=O)(=O)c1cccc2nsnc12` (stereo not drawn), the cell number change was -8.25%. Further, the AC50 under setting [2] was 0.461 µM [falling, full curve, poor fit].
Consider `CCn1cnc2cc(NCc3ccc(Cl)cc3)ccc21`, for which the cell number change amounted to 27.7%.
For the compound `NS(=O)(=O)c1ccc(CCNC(=O)CSCc2ccccc2)cc1`, the cell number change came out at 8.98%. Also, the AC50 under setting [2] is 8.2 µM [rising, partial curve].
On to `Cc1ccccc1C(=O)NCc1nnc(SCC(=O)N2c3ccccc3Sc3ccccc32)n1C`, for which the cell number change was -16.1%. Moreover, the AC50 under setting [2] was 6.51 µM [rising, single point].
`O=C1CCCN2N=C(SCC(=O)Nc3ccc(Cl)cc3)SC2=N1`: the cell number change turned out to be 9.24%.
Turning to `CC(=O)NC(CC(=O)NCCc1ccccc1)c1ccccc1` (stereo not drawn), the cell number change was 7.37%.
`O=C(CSc1nnnn1-c1ccccc1)NCC1(N2CCCCC2)CCCCC1`: the cell number change was -45.4%. Further, the AC50 under setting [1] was 0.517 µM [falling, full curve, poor fit]. In addition, the AC50 under setting [2] was 20.6 µM [falling, single point].
As for `c1ccc(-c2nc3nc4ccccc4nc3n2CC2CCCO2)cc1` (stereo not drawn), the cell number change is 15.9%.
As for `Cn1c(=O)c2c(nc(SCCOc3ccc4ccc(=O)oc4c3)n2C)n(C)c1=O`, the AC50 under setting [2] is 2.06 µM [rising, partial curve].
For the compound `O=C(NCc1ccccc1)c1ccc(F)c(F)c1`, the cell number change amounted to 30.7%.
With `Cc1ccc(NC(=O)Nc2nc(-c3ccc(C)s3)cs2)cc1`, the cell number change was -38.7%. Also, the AC50 under setting [1] was 7.31 µM [falling, partial curve].
On to `Cc1ccc(-c2nnn(CC(=O)NCCc3ccc4c(c3)OCO4)n2)cc1`, for which the cell number change was 10.7%. For the same compound, the AC50 under setting [2] was 29.1 µM [rising, single point].
In the case of `CCOC(=O)c1c(/C=N/Nc2ccccc2)c2sc(C)cc2n1C`, the cell number change is 35.3%. In addition, under setting [2], the AC50 was 0.164 µM [rising, full curve].
As to `O=C(c1ccco1)N1CCN(C(=O)C(Cc2ccccc2)NS(=O)(=O)c2cccs2)CC1` (stereo not drawn), the cell number change amounted to 19.8%. Further, under setting [2], the AC50 was 13 µM [rising, single point].
As to `COC(=O)C(C)Sc1nc2c(cnn2-c2ccc(F)cc2)c(=O)[nH]1` (stereo not drawn), the cell number change was -4.17%. The AC50 under setting [1] was 0.291 µM [rising, partial curve, poor fit]. Also, the half-maximal activity concentration (AC50) under setting [2] was 0.58 µM [rising, single point].
As for `O=C(O)CCC(=O)CCC(=O)c1ccc(Cl)cc1`, the cell number change is -46.8%. Also, the AC50 under setting [1] is 29.1 µM [falling, single point]. Further, the AC50 under setting [2] is 11.6 µM [falling, partial curve].
